Laboratory results taken from article PMC3625234, “The L-Cysteine Desulfurase NFS1 Is Localized in the Cytosol where it Provides the Sulfur for Molybdenum Cofactor Biosynthesis in Humans” (PLoS ONE, 2013).

Target: T1, MOCS3-EGFP^1–157 fusion (human) (UniProt O95396)
T1 sequence: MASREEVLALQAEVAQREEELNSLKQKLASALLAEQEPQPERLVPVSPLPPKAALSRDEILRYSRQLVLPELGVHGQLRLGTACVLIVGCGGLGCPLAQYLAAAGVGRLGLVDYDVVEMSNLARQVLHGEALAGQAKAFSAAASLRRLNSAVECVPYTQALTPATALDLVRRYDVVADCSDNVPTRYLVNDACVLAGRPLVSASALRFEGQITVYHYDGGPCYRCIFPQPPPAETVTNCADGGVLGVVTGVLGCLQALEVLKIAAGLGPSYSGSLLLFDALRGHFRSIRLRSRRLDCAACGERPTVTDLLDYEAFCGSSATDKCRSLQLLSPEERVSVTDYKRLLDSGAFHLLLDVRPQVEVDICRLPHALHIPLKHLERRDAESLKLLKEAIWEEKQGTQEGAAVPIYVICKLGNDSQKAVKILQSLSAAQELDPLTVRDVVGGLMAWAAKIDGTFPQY
Assay: split reporter; split-EGFP complementation (EGFP 1-157 and EGFP 158-238, both fused C-terminally) in transiently cotransfected HeLa cells, fixed 12 h after transfection, confocal microscopy

binding: binds
Substance: NFS1-EGFP^158–238 fusion (human) (enzyme)

These are yes or no findings as the source states them, for the method shown. In cells and extracts the contact can be indirect. A result given as binding can be weak or reduced; the word gives no strength. Where a sequence is shown, tags or fusion partners need not be part of it.
